Assay results from PMC8322336.
These are yes or no findings as the source states them, for the method shown. Binding seen in cells or lysates may run through a third protein. Some entries that bind do so weakly or less than the wild type. For part of these data: Where a sequence is shown, tags or fusion partners need not be part of it.

Protein sequences, listed by entry. Tags and fused reporters are not part of them.
UniProt Q8TDY2: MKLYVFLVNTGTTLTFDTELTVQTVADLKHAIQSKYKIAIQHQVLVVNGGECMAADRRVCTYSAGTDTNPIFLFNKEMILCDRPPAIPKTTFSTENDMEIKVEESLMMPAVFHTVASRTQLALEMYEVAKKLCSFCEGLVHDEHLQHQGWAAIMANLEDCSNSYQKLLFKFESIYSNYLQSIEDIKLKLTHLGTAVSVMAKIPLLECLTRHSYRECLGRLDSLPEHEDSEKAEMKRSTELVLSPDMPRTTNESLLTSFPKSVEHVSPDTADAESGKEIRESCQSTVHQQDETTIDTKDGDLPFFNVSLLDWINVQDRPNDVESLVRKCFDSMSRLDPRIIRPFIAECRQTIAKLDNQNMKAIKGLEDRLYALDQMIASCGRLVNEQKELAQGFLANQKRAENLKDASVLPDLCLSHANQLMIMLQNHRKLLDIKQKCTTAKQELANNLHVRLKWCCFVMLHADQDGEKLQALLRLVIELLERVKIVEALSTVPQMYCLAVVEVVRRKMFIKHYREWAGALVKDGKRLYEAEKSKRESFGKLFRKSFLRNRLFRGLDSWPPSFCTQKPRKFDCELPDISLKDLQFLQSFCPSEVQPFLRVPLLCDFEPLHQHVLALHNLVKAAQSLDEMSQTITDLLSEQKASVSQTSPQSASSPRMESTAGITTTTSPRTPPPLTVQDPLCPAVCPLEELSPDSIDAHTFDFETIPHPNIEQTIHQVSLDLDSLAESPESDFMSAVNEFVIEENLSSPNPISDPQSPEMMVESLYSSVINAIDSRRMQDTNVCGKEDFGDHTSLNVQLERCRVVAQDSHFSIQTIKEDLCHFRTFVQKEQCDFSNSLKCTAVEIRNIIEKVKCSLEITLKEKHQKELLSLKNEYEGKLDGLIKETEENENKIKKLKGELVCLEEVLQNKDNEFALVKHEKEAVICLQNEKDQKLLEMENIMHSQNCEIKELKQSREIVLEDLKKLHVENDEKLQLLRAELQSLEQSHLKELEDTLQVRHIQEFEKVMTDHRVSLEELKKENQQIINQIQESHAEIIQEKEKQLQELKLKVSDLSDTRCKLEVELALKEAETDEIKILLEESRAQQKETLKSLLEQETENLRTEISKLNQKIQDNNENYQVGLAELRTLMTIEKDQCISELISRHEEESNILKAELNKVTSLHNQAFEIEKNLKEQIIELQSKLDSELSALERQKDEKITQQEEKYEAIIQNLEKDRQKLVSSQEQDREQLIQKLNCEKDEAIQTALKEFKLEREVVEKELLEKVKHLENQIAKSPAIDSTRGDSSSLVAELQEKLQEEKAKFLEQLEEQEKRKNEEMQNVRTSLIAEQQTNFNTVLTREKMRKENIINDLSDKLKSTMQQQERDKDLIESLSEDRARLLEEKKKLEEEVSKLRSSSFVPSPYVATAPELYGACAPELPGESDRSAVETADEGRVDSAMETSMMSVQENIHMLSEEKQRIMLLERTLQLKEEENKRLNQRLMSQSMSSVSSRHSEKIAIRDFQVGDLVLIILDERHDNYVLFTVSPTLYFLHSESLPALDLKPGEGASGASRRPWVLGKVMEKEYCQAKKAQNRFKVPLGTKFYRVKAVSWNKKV
UniProt Q9ESK9: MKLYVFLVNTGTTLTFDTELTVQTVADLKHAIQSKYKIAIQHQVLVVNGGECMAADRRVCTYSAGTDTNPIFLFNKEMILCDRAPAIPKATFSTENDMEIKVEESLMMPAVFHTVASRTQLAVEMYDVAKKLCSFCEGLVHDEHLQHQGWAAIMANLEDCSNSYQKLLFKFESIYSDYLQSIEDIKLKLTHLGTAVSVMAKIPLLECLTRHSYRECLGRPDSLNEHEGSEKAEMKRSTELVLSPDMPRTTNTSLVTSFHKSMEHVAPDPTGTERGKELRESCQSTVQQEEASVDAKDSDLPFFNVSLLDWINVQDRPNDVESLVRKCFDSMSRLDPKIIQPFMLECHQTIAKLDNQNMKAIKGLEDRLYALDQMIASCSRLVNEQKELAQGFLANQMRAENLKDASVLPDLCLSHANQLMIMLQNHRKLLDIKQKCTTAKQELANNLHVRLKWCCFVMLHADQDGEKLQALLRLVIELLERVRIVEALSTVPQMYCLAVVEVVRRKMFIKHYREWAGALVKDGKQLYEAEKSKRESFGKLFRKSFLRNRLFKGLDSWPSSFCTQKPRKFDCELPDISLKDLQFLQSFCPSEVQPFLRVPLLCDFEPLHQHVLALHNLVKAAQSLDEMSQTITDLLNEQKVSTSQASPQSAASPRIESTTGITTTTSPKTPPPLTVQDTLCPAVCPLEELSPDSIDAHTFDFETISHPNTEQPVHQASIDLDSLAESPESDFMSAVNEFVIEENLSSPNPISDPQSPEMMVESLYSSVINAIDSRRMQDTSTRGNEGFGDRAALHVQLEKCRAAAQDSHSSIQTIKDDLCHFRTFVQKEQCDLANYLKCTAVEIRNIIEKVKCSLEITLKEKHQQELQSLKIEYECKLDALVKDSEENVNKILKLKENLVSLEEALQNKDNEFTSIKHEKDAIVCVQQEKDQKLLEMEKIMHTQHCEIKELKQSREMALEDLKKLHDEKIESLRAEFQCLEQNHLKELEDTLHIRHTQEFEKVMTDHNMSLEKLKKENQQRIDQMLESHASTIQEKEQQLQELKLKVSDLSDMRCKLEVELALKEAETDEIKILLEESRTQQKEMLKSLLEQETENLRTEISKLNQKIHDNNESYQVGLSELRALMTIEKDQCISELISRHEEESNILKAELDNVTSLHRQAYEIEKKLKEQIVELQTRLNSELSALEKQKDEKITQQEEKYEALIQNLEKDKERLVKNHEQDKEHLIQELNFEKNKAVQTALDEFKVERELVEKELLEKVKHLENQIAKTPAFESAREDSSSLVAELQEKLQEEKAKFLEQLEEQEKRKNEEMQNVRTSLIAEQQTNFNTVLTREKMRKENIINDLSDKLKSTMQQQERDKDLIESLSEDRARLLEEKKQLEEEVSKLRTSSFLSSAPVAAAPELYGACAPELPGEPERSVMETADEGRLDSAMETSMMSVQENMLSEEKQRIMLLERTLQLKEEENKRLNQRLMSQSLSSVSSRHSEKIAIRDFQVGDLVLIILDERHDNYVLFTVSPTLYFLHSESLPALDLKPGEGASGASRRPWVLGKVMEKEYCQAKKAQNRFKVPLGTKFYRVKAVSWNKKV

Key:
[1] = molecular target: T1, endogenous RIG-I of RAW 264.7 macrophages (mouse (endogenous in RAW 264.7)) (UniProt Q6Q899); assay: co-IP; RAW 264.7 macrophages transfected with 1 ug/ml poly(I:C) for 2 h; endogenous proteins, immunoprecipitated with anti-RIG-I antibody or control IgG
T1 sequence: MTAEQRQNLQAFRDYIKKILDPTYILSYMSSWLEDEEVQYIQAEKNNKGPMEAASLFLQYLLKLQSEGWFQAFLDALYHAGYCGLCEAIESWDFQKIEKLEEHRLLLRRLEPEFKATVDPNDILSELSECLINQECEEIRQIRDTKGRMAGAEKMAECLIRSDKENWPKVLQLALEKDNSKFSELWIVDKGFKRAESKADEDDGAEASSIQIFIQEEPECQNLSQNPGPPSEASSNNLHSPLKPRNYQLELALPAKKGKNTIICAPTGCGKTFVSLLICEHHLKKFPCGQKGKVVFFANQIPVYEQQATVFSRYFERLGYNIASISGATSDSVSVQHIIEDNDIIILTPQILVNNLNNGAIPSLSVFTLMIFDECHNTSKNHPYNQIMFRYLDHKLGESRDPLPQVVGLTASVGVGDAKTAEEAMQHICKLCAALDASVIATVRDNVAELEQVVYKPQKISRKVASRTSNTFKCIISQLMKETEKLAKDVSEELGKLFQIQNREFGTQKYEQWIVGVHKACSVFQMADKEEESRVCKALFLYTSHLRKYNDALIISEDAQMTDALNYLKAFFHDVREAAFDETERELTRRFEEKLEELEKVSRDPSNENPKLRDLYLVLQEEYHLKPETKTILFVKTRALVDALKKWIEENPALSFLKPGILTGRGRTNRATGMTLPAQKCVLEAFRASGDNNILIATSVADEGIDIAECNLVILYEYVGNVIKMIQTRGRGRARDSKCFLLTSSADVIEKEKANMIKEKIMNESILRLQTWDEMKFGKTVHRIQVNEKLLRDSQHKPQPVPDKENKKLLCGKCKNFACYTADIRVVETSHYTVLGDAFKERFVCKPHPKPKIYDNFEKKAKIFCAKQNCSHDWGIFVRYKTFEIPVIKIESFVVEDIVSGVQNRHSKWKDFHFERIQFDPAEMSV

[2] = molecular target: FLAG-tagged FIP200 (not stated (a human plasmid, pMXs-IP-EGFP-hFIP200, is named)) (UniProt Q8TDY2); assay: co-IP; HEK293 cells co-transfected with tagged constructs, 48 h; TAP lysis buffer (50 mM Tris-HCl pH 7.5, 10 mM MgCl2, 100 mM NaCl, 0.5% NP-40, 10% glycerol); antibody plus protein A/G agarose or anti-FLAG M2 gel overnight at 4 C
[3] = molecular target: endogenous FIP200 of A549 cells (human (endogenous in A549)) (UniProt Q8TDY2); assay: proximity ligation; A549 cells transfected with 1 ug/ml poly(I:C) for 2 h, fixed; endogenous proteins; Duolink In Situ kit
[4] = molecular target: FIP200 (transfected, tags not shown) (not stated (a human plasmid, pMXs-IP-EGFP-hFIP200, is named)) (UniProt Q8TDY2); assay: co-IP; HEK293 cells co-transfected with tagged constructs, 48 h; TAP lysis buffer (50 mM Tris-HCl pH 7.5, 10 mM MgCl2, 100 mM NaCl, 0.5% NP-40, 10% glycerol); antibody plus protein A/G agarose or anti-FLAG M2 gel overnight at 4 C
[5] = molecular target: HA-tagged FIP200 (not stated (a human plasmid, pMXs-IP-EGFP-hFIP200, is named)) (UniProt Q8TDY2); assay: as above

“endogenous FIP200 of RAW 264.7 macrophages (from UniProt Q9ESK9 1-1588)” was tested, and the binding [1] was “binds”.

B1: Myc-tagged RIG-I (protein, UniProt O95786 1-925)
chain: MTTEQRRSLQAFQDYIRKTLDPTYILSYMAPWFREEEVQYIQAEKNNKGPMEAATLFLKFLLELQEEGWFRGFLDALDHAGYSGLYEAIESWDFKKIEKLEEYRLLLKRLQPEFKTRIIPTDIISDLSECLINQECEEILQICSTKGMMAGAEKLVECLLRSDKENWPKTLKLALEKERNKFSELWIVEKGIKDVETEDLEDKMETSDIQIFYQEDPECQNLSENSCPPSEVSDTNLYSPFKPRNYQLELALPAMKGKNTIICAPTGCGKTFVSLLICEHHLKKFPQGQKGKVVFFANQIPVYEQQKSVFSKYFERHGYRVTGISGATAENVPVEQIVENNDIIILTPQILVNNLKKGTIPSLSIFTLMIFDECHNTSKQHPYNMIMFNYLDQKLGGSSGPLPQVIGLTASVGVGDAKNTDEALDYICKLCASLDASVIATVKHNLEELEQVVYKPQKFFRKVESRISDKFKYIIAQLMRDTESLAKRICKDLENLSQIQNREFGTQKYEQWIVTVQKACMVFQMPDKDEESRICKALFLYTSHLRKYNDALIISEHARMKDALDYLKDFFSNVRAAGFDEIEQDLTQRFEEKLQELESVSRDPSNENPKLEDLCFILQEEYHLNPETITILFVKTRALVDALKNWIEGNPKLSFLKPGILTGRGKTNQNTGMTLPAQKCILDAFKASGDHNILIATSVADEGIDIAQCNLVILYEYVGNVIKMIQTRGRGRARGSKCFLLTSNAGVIEKEQINMYKEKMMNDSILRLQTWDEAVFREKILHIQTHEKFIRDSQEKPKPVPDKENKKLLCRKCKALACYTADVRVIEECHYTVLGDAFKECFVSRPHPKPKQFSSFEKRAKIFCARQNCSHDWGIHVKYKTFEIPVIKIESFVVEDIATGVQTLYSKWKDFHFEKIPFDPAEMSK
With B1 the binding [2] was “binds”.

B2: HA-tagged RIG-I (protein, UniProt O95786 1-925)
chain: MTTEQRRSLQAFQDYIRKTLDPTYILSYMAPWFREEEVQYIQAEKNNKGPMEAATLFLKFLLELQEEGWFRGFLDALDHAGYSGLYEAIESWDFKKIEKLEEYRLLLKRLQPEFKTRIIPTDIISDLSECLINQECEEILQICSTKGMMAGAEKLVECLLRSDKENWPKTLKLALEKERNKFSELWIVEKGIKDVETEDLEDKMETSDIQIFYQEDPECQNLSENSCPPSEVSDTNLYSPFKPRNYQLELALPAMKGKNTIICAPTGCGKTFVSLLICEHHLKKFPQGQKGKVVFFANQIPVYEQQKSVFSKYFERHGYRVTGISGATAENVPVEQIVENNDIIILTPQILVNNLKKGTIPSLSIFTLMIFDECHNTSKQHPYNMIMFNYLDQKLGGSSGPLPQVIGLTASVGVGDAKNTDEALDYICKLCASLDASVIATVKHNLEELEQVVYKPQKFFRKVESRISDKFKYIIAQLMRDTESLAKRICKDLENLSQIQNREFGTQKYEQWIVTVQKACMVFQMPDKDEESRICKALFLYTSHLRKYNDALIISEHARMKDALDYLKDFFSNVRAAGFDEIEQDLTQRFEEKLQELESVSRDPSNENPKLEDLCFILQEEYHLNPETITILFVKTRALVDALKNWIEGNPKLSFLKPGILTGRGKTNQNTGMTLPAQKCILDAFKASGDHNILIATSVADEGIDIAQCNLVILYEYVGNVIKMIQTRGRGRARGSKCFLLTSNAGVIEKEQINMYKEKMMNDSILRLQTWDEAVFREKILHIQTHEKFIRDSQEKPKPVPDKENKKLLCRKCKALACYTADVRVIEECHYTVLGDAFKECFVSRPHPKPKQFSSFEKRAKIFCARQNCSHDWGIHVKYKTFEIPVIKIESFVVEDIATGVQTLYSKWKDFHFEKIPFDPAEMSK
For B2, the binding [2] was “binds”.

B3: endogenous RIG-I of A549 cells (protein, UniProt O95786 1-925)
chain: MTTEQRRSLQAFQDYIRKTLDPTYILSYMAPWFREEEVQYIQAEKNNKGPMEAATLFLKFLLELQEEGWFRGFLDALDHAGYSGLYEAIESWDFKKIEKLEEYRLLLKRLQPEFKTRIIPTDIISDLSECLINQECEEILQICSTKGMMAGAEKLVECLLRSDKENWPKTLKLALEKERNKFSELWIVEKGIKDVETEDLEDKMETSDIQIFYQEDPECQNLSENSCPPSEVSDTNLYSPFKPRNYQLELALPAMKGKNTIICAPTGCGKTFVSLLICEHHLKKFPQGQKGKVVFFANQIPVYEQQKSVFSKYFERHGYRVTGISGATAENVPVEQIVENNDIIILTPQILVNNLKKGTIPSLSIFTLMIFDECHNTSKQHPYNMIMFNYLDQKLGGSSGPLPQVIGLTASVGVGDAKNTDEALDYICKLCASLDASVIATVKHNLEELEQVVYKPQKFFRKVESRISDKFKYIIAQLMRDTESLAKRICKDLENLSQIQNREFGTQKYEQWIVTVQKACMVFQMPDKDEESRICKALFLYTSHLRKYNDALIISEHARMKDALDYLKDFFSNVRAAGFDEIEQDLTQRFEEKLQELESVSRDPSNENPKLEDLCFILQEEYHLNPETITILFVKTRALVDALKNWIEGNPKLSFLKPGILTGRGKTNQNTGMTLPAQKCILDAFKASGDHNILIATSVADEGIDIAQCNLVILYEYVGNVIKMIQTRGRGRARGSKCFLLTSNAGVIEKEQINMYKEKMMNDSILRLQTWDEAVFREKILHIQTHEKFIRDSQEKPKPVPDKENKKLLCRKCKALACYTADVRVIEECHYTVLGDAFKECFVSRPHPKPKQFSSFEKRAKIFCARQNCSHDWGIHVKYKTFEIPVIKIESFVVEDIATGVQTLYSKWKDFHFEKIPFDPAEMSK
In the case of B3, the binding [3] is reported as “binds”.

B4: wild-type RIG-I (transfected, tag not shown) (protein, UniProt O95786 1-925)
chain: MTTEQRRSLQAFQDYIRKTLDPTYILSYMAPWFREEEVQYIQAEKNNKGPMEAATLFLKFLLELQEEGWFRGFLDALDHAGYSGLYEAIESWDFKKIEKLEEYRLLLKRLQPEFKTRIIPTDIISDLSECLINQECEEILQICSTKGMMAGAEKLVECLLRSDKENWPKTLKLALEKERNKFSELWIVEKGIKDVETEDLEDKMETSDIQIFYQEDPECQNLSENSCPPSEVSDTNLYSPFKPRNYQLELALPAMKGKNTIICAPTGCGKTFVSLLICEHHLKKFPQGQKGKVVFFANQIPVYEQQKSVFSKYFERHGYRVTGISGATAENVPVEQIVENNDIIILTPQILVNNLKKGTIPSLSIFTLMIFDECHNTSKQHPYNMIMFNYLDQKLGGSSGPLPQVIGLTASVGVGDAKNTDEALDYICKLCASLDASVIATVKHNLEELEQVVYKPQKFFRKVESRISDKFKYIIAQLMRDTESLAKRICKDLENLSQIQNREFGTQKYEQWIVTVQKACMVFQMPDKDEESRICKALFLYTSHLRKYNDALIISEHARMKDALDYLKDFFSNVRAAGFDEIEQDLTQRFEEKLQELESVSRDPSNENPKLEDLCFILQEEYHLNPETITILFVKTRALVDALKNWIEGNPKLSFLKPGILTGRGKTNQNTGMTLPAQKCILDAFKASGDHNILIATSVADEGIDIAQCNLVILYEYVGNVIKMIQTRGRGRARGSKCFLLTSNAGVIEKEQINMYKEKMMNDSILRLQTWDEAVFREKILHIQTHEKFIRDSQEKPKPVPDKENKKLLCRKCKALACYTADVRVIEECHYTVLGDAFKECFVSRPHPKPKQFSSFEKRAKIFCARQNCSHDWGIHVKYKTFEIPVIKIESFVVEDIATGVQTLYSKWKDFHFEKIPFDPAEMSK
B4 was tested, and the binding [4] was “binds” and the binding [5] was “binds”.
